From article PMC4510711

Sequences of proteins named here, by UniProt entry; tags and fusion partners are left off.
UniProt Q9UFF9: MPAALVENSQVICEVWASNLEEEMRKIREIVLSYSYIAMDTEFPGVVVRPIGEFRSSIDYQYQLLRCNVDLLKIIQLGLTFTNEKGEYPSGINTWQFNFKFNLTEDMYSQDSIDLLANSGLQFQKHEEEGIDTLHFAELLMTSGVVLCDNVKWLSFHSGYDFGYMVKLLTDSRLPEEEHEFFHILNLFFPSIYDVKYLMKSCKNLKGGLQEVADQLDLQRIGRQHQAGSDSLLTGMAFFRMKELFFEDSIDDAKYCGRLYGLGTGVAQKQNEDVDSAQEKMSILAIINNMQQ
UniProt O75175: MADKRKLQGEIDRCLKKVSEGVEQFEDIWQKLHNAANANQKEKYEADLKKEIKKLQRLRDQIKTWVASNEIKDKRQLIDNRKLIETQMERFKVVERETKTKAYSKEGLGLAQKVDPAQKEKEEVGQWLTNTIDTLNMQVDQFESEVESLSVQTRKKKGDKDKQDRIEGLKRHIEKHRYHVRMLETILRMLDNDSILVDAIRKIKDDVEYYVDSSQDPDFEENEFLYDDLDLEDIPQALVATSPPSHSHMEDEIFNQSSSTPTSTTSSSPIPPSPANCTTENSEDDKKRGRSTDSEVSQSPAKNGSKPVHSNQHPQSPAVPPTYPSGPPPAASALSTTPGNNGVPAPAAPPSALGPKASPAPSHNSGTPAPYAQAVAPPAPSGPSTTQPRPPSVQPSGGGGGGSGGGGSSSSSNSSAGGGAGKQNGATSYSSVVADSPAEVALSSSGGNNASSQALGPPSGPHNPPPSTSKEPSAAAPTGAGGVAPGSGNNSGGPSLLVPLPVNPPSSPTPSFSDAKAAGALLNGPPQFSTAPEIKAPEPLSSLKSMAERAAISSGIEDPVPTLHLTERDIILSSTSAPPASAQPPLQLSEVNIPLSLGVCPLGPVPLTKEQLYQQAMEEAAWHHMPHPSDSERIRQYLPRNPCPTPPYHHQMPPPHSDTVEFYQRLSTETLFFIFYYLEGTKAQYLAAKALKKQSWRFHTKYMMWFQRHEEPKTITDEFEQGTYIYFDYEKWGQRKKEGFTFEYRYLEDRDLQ
UniProt Q9NZN8: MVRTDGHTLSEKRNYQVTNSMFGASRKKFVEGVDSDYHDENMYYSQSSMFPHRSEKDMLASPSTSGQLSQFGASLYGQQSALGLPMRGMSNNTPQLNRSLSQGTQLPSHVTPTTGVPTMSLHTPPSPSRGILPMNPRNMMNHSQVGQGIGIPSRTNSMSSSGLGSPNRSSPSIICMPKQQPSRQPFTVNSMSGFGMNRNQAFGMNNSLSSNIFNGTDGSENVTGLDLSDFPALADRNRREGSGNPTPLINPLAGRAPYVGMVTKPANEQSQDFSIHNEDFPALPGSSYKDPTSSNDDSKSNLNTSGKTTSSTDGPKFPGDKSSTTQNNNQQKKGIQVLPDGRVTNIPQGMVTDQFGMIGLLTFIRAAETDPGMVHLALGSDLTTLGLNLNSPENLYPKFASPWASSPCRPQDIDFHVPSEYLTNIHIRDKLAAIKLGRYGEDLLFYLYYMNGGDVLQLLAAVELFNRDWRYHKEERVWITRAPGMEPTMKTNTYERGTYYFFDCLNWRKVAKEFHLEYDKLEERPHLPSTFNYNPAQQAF
UniProt Q9UIV1: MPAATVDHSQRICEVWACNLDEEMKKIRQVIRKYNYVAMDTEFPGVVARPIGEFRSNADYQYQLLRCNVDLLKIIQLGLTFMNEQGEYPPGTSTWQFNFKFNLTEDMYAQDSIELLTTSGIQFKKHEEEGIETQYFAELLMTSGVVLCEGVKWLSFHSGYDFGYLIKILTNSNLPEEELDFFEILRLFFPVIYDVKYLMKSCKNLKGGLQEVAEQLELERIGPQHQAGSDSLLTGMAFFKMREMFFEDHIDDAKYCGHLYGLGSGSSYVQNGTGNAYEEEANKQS
UniProt A5YKK6: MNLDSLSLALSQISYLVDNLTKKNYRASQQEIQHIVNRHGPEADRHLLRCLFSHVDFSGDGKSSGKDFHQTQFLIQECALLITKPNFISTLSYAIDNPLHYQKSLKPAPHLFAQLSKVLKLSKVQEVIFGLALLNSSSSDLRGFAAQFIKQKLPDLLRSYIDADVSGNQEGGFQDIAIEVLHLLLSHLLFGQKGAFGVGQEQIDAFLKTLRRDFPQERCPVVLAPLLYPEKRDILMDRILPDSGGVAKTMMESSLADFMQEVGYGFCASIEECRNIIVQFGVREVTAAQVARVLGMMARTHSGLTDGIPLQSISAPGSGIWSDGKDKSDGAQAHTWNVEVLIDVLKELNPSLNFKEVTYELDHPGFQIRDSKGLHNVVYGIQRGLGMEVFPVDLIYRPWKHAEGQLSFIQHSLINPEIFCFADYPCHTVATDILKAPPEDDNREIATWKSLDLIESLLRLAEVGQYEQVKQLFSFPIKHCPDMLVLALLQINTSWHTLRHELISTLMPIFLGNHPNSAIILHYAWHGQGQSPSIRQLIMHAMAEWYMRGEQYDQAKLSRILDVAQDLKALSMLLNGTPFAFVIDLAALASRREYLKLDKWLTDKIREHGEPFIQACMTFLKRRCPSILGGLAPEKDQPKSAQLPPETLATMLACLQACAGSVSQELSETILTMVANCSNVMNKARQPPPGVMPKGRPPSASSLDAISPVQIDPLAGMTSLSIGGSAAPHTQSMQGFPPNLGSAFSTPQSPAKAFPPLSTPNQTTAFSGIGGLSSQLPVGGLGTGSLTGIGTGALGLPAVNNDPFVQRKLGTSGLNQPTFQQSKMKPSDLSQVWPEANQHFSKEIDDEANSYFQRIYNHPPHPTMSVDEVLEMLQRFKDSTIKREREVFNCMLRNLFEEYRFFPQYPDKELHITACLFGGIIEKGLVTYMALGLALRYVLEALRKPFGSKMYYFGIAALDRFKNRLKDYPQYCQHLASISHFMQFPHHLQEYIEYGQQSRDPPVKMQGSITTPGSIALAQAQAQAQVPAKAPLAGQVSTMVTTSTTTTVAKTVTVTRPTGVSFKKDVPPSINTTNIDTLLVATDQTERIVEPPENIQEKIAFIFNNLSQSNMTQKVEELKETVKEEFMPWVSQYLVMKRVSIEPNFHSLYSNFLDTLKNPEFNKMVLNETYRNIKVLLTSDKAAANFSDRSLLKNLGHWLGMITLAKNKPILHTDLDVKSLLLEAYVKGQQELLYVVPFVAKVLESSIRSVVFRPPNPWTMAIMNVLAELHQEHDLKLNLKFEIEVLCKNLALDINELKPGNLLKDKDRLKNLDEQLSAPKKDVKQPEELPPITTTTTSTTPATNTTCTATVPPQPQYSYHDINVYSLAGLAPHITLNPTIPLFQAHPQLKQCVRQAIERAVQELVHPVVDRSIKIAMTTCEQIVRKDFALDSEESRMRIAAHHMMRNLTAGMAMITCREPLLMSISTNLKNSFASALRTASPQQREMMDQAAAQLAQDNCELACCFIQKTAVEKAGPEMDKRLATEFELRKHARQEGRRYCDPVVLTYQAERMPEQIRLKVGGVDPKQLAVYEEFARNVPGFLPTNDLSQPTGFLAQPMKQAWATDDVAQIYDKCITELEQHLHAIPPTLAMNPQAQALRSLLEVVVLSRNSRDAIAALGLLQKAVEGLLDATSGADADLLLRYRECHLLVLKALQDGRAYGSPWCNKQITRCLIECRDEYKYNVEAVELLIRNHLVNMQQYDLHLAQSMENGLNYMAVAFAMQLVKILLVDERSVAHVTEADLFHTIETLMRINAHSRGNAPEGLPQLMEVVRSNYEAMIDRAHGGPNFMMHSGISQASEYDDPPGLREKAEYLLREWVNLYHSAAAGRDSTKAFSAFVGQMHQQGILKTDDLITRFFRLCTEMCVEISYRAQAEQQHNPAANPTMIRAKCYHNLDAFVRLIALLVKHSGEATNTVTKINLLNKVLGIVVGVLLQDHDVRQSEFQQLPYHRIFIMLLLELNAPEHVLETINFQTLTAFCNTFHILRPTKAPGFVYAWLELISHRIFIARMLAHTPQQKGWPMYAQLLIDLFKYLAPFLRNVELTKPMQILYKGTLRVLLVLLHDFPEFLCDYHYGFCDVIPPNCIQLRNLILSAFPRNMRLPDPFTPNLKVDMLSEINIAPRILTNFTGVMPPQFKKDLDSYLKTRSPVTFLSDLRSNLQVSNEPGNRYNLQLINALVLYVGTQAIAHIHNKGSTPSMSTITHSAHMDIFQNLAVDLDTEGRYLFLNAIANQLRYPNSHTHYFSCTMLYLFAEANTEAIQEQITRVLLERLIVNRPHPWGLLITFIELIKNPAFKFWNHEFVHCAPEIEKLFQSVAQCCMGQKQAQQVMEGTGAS

Molecular target: T1, FLAG/HA-tagged RC3H1 (human) (UniProt Q5TC82)
T1 sequence: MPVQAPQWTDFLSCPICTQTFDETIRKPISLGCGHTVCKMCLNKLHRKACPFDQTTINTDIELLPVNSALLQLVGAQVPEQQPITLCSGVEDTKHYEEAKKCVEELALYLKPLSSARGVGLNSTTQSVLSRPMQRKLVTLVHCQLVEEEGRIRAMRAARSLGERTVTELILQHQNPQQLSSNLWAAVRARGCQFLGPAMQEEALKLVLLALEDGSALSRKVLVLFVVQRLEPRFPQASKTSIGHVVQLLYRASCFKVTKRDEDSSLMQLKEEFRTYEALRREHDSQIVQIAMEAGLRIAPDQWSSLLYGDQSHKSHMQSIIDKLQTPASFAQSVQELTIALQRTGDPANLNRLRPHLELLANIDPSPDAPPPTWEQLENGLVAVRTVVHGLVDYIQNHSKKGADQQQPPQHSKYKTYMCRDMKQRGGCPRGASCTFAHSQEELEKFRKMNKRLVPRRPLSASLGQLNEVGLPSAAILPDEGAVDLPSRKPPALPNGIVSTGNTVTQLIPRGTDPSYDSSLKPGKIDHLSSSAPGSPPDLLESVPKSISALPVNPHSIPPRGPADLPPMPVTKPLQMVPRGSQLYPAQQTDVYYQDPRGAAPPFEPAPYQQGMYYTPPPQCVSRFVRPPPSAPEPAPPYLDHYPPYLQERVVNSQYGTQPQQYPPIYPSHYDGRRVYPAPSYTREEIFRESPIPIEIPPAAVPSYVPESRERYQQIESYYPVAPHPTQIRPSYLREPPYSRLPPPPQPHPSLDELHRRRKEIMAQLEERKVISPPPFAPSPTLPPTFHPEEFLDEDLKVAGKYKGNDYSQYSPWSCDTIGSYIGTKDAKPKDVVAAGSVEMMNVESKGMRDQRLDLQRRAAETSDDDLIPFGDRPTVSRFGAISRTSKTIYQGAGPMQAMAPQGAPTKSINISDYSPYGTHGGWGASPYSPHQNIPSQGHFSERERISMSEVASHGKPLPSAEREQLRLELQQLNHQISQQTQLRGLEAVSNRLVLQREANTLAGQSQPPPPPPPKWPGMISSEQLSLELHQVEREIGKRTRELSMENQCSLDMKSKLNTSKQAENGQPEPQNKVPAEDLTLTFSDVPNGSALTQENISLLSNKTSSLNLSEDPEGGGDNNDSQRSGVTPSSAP
Assay: affinity purification with mass spectrometry; SILAC label-swap (forward and reverse); FLAG/HA-RC3H1 purified from NP40 lysis buffer extracts on FLAG magnetic beads, then on HA beads; extracts treated with RNase T1, beads with RNase T1 and RNase I to disrupt RNA-mediated interactions; on-column tryptic digestion, LC-MS/MS

binding | Substance
binds | CNOT8 (from UniProt Q9UFF9 1-292)
binds | CNOT3 (from UniProt O75175 1-753)
binds | CNOT2 (from UniProt Q9NZN8 1-540)
binds | CNOT7 (from UniProt Q9UIV1 1-285)
binds | CNOT1 (from UniProt A5YKK6 1-2376)

Results are given in words; binding and its absence hold for the method and conditions named. In cells and extracts the contact can be indirect. These calls come from enrichment with a bait or labelling near it, and not all partners need be listed. Tags and fused reporters may be left off the sequences shown.
